Some of the results follow. Shown are side measurements of this screen, not its main read-out; they come without a call. Most of these compounds were active or inconclusive in the main read-out, so they are no random draw.
Experiment: blockers of oleate-driven lipid droplets in liver cells – imaging, AML12 mouse hepatocytes, single concentration, high-content, confirmation (AID 463183);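 further: cells counted after overnight compound exposure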
Settings: BODIPY lipid droplet imaging, measured here: cell count, cytotoxicity, at 5.2 µM, droplets induced with 100 µM oleic acid

Row | SMILES | cell count
1 | O=C(Nc1nc(-c2ccc(-c3ccccc3)cc2)cs1)C1CCCO1 (stereo unspecified) | 1640 cells
2 | COc1ccc(N=C/C=C2/C=C(c3ccccc3)OC(C)(C)O2)cc1 | 1550 cells
3 | CC(C)c1ccccc1NC(=O)COC(=O)c1c2c(nc3ccccc13)CCN(Cc1ccccc1)C2 | 1570 cells
4 | CN(C)CCCN(C(=O)c1ccc2ccccc2c1)c1nc2cc3c(cc2s1)OCO3 | 1560 cells
5 | COc1ccc(CCNC(=O)[C@H](C)N2C(=O)N3CCc4c([nH]c5ccccc45)[C@@]3(C)C2=O)cc1OC | 1600 cells
6 | CCOc1ccc2ccccc2c1/C=N/NC(=O)CNC(=O)C(c1ccccc1)c1ccccc1 | 1620 cells
7 | CCCCCc1cc(=O)oc2c(C(CCN3CCCC(C)C3)c3ccc(N(C)C)cc3)c(OC)cc(OC)c12 (stereo unspecified) | 1340 cells
8 | CCc1cc(C(=O)N2CCc3c([nH]c4ccccc34)C2c2ccc(OC)cc2F)no1 (stereo unspecified) | 1570 cells
9 | CC(C)Cn1c(N)c(C(=O)COC(=O)c2cc(C3CC3)nc3ccccc23)c(=O)n(C)c1=O | 1600 cells
10 | CCOc1ccccc1NC(=O)C1CCN(C(=O)NCc2ccccc2)CC1 | 1650 cells
11 | Cc1ccc(N2C(=O)c3ccccc3NC2(C(=O)O)c2ccccc2)cc1Cl (stereo unspecified) | 1250 cells
12 | CCOc1ccc(CC(=O)Nc2ccc(NC(=O)c3ccco3)cc2)cc1OCC | 1720 cells
13 | CCOc1ccccc1-c1cc(C(=O)N/N=C/c2ccc(O)c(OC)c2)c2ccccc2n1 | 1510 cells
14 | CCOc1ccc(C2=NNC(c3cccs3)=Nc3ccc(OC)cc32)cc1OCC | 1580 cells
15 | CCOC(=O)C1=C(C)n2c(s/c(=C3\C(=O)Nc4ccccc43)c2=O)=NC1c1ccc(OC)cc1 (stereo unspecified) | 1590 cells
16 | COc1cccc(/C=C/C(=O)NCCc2ccc(OC)c(OC)c2)c1 | 1600 cells
17 | CN1CC(=O)Nc2ccc([N+](=O)[O-])cc2C1=O | 1580 cells
18 | COc1cccc(-c2cc(C(=O)Nc3ccc([N+](=O)[O-])cn3)c3ccccc3n2)c1 | 1580 cells
19 | O=C(NCCc1cccnc1)c1cc(COc2ccc(F)cc2F)on1 | 1660 cells
20 | C/C(N)=C(/C#N)C(=O)CSc1nnc(Nc2cccc(C)c2)s1 | 1630 cells
21 | O=C(Nc1nc(-c2ccccc2)cs1)C1CCCCN1S(=O)(=O)c1ccc(Cl)cc1 (stereo unspecified) | 1600 cells

Compounds 8–9, reprinted for reference:
Row | SMILES | cell count
8 | CCc1cc(C(=O)N2CCc3c([nH]c4ccccc34)C2c2ccc(OC)cc2F)no1 (stereo unspecified) | 1570 cells
9 | CC(C)Cn1c(N)c(C(=O)COC(=O)c2cc(C3CC3)nc3ccccc23)c(=O)n(C)c1=O | 1600 cells

From PubChem BioAssay AID463183 (Sanford-Burnham Center for Chemical Genomics, 2010)
